Source: paper PMC10700341

Molecular target: chicken leptin receptor, FLAG-tagged (chicken)
Assay: co-IP; lysates of DF-1 cells expressing both Myc-tagged leptin and FLAG-tagged chLEPR; lysis buffer 50 mM Tris-HCl pH 8.0, 137 mM NaCl, 1% Triton X-100, 1 mM EDTA, 10% glycerol; anti-FLAG or anti-Myc magnetic beads, 4 °C overnight; immunoblotting

binding: binds
B1: chicken leptin, Myc-tagged (ligand, UniProt O42164 19-163)
chain: VPCQIFQDDTKTLIKTIVTRINDISHTSVSAKQRVTGLDFIPGLHPILSLSKMDQTLAVYQQVLTSLPSQNVLQIANDLENLRDLLHLLAFSKSCSLPQTSGLQKPESLDGVLEASLYSTEVVALSRLQGSLQDILQQLDISPEC

No constants are given. Whether binding was seen depends on the method and setting. In cells and extracts the contact can be indirect. Binding calls can cover weak binding; strength is not graded here. Where a sequence is shown, tags or fusion partners need not be part of it.
